# Assay results as given in patent publication US20160367623A1, “AGONISTS OF GUANYLATE CYCLASE USEFUL FOR THE TREATMENT OF GASTROINTESTINAL DISORDERS, INFLAMMATION, CANCER AND OTHER DISORDERS” (priority 2015, published 2016).
# Test system: patients with chronic idiopathic constipation (CIC)
# Experiment: Second phase 3 CIC trial: patient compliance with study medication
# Assay type: in vivo, human
# Conditions: ITT Population
# [1] = Active Combined (N = 892), Missing Returned Tablet Count Imputed as Number of Pills Dispensed
# [2] = Active Combined (N = 892), Missing Returned Tablet Count Imputed as Zero
# [3] = Plecanatide 3 mg (N = 443), Missing Returned Tablet Count Imputed as Number of Pills Dispensed
# [4] = Plecanatide 3 mg (N = 443), Missing Returned Tablet Count Imputed as Zero
# [5] = Plecanatide 6 mg (N = 449), Missing Returned Tablet Count Imputed as Number of Pills Dispensed
# [6] = Plecanatide 6 mg (N = 449), Missing Returned Tablet Count Imputed as Zero
substance,measurement,setting,value
"Asn^1-Asp^2-Glu^3-Cys^4-Glu^5-Leu^6-Cys^7-Val^8-Asn^9-Val^10-Ala^11-Cys^12-Thr^13-Gly^14-Cys^15-Leu^16 (NDECELCVNVACTGCL; disulfides C4-C12, C7-C15) [Plecanatide, uroguanylin analogue, guanylate cyclase-C agonist; (C4:C12, C7:C15) bicycle peptide]",% of patients who did not complete study treatment who were compliant with study treatment,"Active Combined (N = 392), Missing Returned Tablet Count Imputed as Zero",(87.2) %
same,% of patients who completed study treatment who were compliant with study treatment,[1],(95.4) %
same,% of patients who did not complete study treatment who were compliant with study treatment,[1],(71.8) %
same,% of patients who were compliant with study treatment,[1],(92.3) %
same,% of patients who completed study treatment who were compliant with study treatment,[2],(98.6) %
same,% of patients who were compliant with study treatment,[2],(97.1) %
same,% of patients who completed study treatment who were compliant with study treatment,[3],(94.7) %
same,% of patients who did not complete study treatment who were compliant with study treatment,[3],(81.0) %
same,% of patients who were compliant with study treatment,[3],(92.8) %
same,% of patients who completed study treatment who were compliant with study treatment,[4],(98.7) %
same,% of patients who did not complete study treatment who were compliant with study treatment,[4],(90.5) %
same,% of patients who were compliant with study treatment,[4],(97.5) %
same,% of patients who completed study treatment who were compliant with study treatment,[5],(95.9) %
same,% of patients who did not complete study treatment who were compliant with study treatment,[5],(61.1) %
same,% of patients who were compliant with study treatment,[5],(91.8) %
same,% of patients who completed study treatment who were compliant with study treatment,[6],(98.5) %
same,% of patients who did not complete study treatment who were compliant with study treatment,[6],(83.3) %
same,% of patients who were compliant with study treatment,[6],(96.7) %
